Here are results for one sequence from paper PMC5789848.

The subject of the series is T1, UPF1-HD DE636AA D636A,E637A (Homo sapiens).
T1 sequence (looked up): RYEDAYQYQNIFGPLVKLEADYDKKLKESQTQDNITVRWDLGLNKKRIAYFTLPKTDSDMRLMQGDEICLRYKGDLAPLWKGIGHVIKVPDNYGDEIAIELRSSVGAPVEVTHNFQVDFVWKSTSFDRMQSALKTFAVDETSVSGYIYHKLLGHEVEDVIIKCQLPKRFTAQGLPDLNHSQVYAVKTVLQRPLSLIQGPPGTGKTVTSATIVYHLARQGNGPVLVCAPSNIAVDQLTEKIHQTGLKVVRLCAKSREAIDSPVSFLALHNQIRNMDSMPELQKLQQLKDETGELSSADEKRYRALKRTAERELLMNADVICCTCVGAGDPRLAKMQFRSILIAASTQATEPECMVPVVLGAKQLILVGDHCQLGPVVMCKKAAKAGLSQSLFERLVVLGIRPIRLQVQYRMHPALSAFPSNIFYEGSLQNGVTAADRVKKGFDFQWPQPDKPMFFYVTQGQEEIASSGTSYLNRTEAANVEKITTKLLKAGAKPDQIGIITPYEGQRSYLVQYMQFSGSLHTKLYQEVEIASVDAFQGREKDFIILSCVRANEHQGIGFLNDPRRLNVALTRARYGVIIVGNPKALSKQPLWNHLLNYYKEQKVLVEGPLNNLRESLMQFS
The series can be described thus: pull-down. The conditions noted are these: 200 mM NaCl; pull-down: BLI-like buffer, 30 C then 4 C, 200 mM NaCl wash; recombinant protein; residues 295-914; protein details: His; label: 3' biotin (BtnTg).

The exact form of at least one protein or probe is not confirmed. At least one verdict rests on a figure or table, not on a statement of the authors. Protein sequences can lack the tags named with them.

Take “CGUCCAUCUGGUCAUCUAGUGAUAUCAUCG [30-mer ssRNA 3'-biotin (pull-down)]”: the binding result was “binds”.
